log2 fold change data for 33 targets are collected here from the supplement of paper PMC10849652.

Protein sequences, listed by entry. Tags and fused reporters are not part of them. Lines headed by an entry give the natural chain unless they say otherwise; changes in a name come on top.
UniProt Q9H0C8: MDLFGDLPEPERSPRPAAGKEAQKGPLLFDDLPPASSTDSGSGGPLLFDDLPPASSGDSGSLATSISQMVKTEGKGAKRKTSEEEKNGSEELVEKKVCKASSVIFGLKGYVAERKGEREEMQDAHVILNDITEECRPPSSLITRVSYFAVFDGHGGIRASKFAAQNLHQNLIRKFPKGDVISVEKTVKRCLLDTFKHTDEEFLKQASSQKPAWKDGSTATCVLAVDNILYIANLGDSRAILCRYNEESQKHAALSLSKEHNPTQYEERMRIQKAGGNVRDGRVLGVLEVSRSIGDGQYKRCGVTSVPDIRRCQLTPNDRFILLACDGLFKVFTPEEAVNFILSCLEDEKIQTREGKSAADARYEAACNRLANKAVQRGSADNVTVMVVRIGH
UniProt P05362: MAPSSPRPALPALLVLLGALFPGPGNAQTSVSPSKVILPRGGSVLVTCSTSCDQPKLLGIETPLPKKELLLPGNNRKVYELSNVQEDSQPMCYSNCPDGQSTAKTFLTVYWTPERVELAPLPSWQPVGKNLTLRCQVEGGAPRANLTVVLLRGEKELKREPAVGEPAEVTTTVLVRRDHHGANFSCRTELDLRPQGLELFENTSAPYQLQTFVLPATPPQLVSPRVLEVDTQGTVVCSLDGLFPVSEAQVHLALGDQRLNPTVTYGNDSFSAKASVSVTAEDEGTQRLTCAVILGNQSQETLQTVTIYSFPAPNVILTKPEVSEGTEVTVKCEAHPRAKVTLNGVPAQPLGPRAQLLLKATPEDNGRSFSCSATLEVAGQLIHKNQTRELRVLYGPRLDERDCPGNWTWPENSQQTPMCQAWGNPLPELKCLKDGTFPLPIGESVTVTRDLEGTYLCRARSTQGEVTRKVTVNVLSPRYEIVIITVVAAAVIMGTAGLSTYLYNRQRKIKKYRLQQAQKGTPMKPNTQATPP
UniProt Q969P0: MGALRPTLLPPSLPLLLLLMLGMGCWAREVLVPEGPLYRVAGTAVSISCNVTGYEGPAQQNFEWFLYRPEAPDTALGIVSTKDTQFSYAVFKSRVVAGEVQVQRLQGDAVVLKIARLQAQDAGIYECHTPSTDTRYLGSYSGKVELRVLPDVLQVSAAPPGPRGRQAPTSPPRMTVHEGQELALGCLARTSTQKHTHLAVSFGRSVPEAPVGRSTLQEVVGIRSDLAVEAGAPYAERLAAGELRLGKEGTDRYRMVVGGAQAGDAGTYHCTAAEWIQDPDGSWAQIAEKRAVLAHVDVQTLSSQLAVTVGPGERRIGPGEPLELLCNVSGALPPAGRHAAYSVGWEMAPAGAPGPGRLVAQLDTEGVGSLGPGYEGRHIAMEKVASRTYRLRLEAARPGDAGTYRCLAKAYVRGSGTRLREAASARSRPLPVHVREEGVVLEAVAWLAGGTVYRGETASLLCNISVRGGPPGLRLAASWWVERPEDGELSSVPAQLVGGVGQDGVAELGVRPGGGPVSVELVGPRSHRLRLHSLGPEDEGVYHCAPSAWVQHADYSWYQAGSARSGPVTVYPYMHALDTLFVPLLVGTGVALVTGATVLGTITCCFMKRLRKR
UniProt A1L0T0: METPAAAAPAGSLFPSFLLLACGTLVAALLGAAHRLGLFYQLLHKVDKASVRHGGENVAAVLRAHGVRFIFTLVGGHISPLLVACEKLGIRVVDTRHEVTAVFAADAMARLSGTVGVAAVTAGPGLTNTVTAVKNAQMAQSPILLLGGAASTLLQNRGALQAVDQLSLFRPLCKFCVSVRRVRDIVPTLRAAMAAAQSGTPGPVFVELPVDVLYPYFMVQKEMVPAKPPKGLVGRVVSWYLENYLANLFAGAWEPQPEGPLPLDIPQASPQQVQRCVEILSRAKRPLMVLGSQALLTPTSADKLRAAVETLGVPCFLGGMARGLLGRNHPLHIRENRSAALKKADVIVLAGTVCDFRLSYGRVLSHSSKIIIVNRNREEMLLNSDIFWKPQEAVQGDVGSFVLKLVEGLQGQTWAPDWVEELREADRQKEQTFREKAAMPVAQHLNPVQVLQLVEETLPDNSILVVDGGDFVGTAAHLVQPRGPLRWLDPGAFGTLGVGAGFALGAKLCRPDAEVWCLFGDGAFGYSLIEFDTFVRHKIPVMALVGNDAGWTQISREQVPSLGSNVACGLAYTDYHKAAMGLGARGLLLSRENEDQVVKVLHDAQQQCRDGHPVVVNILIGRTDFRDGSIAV
UniProt O75874, whole entry, looked up: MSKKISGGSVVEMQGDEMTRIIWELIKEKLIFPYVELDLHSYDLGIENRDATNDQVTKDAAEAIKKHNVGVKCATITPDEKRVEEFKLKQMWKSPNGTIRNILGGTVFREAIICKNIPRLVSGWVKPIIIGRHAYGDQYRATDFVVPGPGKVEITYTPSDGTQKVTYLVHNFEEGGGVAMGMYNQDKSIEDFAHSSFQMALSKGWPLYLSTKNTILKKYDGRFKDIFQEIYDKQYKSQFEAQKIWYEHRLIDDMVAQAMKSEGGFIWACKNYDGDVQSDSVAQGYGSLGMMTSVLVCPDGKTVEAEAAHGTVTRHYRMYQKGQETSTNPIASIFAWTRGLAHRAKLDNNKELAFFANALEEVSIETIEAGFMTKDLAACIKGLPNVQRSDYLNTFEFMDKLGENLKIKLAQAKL
UniProt P11142, whole entry, looked up: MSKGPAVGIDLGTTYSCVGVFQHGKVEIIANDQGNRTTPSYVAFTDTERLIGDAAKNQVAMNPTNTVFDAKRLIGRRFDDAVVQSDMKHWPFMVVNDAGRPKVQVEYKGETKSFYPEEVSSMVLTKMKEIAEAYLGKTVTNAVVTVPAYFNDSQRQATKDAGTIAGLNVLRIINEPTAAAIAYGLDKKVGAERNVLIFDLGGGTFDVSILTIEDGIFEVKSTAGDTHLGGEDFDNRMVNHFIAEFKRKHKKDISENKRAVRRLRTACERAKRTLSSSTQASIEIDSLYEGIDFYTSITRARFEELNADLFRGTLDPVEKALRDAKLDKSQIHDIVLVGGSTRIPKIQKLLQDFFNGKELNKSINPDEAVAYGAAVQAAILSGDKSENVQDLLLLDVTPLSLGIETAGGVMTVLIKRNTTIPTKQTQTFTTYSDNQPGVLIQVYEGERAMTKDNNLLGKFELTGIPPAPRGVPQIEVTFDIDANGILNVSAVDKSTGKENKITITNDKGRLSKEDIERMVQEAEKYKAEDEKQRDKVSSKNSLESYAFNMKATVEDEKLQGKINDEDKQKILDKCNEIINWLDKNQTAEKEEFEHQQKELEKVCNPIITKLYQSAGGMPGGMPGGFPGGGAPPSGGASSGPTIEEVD
UniProt P51553: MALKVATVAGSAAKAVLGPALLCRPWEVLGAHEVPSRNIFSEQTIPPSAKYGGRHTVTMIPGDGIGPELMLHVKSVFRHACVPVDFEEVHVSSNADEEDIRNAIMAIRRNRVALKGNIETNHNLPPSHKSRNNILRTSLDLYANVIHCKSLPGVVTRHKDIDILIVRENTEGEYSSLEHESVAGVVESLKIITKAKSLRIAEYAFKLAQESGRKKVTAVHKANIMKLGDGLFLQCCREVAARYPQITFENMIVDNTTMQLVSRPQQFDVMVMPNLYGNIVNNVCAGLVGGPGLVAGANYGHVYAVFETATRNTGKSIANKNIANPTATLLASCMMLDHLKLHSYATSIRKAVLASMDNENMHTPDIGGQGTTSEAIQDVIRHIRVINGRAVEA
UniProt Q9UMF0: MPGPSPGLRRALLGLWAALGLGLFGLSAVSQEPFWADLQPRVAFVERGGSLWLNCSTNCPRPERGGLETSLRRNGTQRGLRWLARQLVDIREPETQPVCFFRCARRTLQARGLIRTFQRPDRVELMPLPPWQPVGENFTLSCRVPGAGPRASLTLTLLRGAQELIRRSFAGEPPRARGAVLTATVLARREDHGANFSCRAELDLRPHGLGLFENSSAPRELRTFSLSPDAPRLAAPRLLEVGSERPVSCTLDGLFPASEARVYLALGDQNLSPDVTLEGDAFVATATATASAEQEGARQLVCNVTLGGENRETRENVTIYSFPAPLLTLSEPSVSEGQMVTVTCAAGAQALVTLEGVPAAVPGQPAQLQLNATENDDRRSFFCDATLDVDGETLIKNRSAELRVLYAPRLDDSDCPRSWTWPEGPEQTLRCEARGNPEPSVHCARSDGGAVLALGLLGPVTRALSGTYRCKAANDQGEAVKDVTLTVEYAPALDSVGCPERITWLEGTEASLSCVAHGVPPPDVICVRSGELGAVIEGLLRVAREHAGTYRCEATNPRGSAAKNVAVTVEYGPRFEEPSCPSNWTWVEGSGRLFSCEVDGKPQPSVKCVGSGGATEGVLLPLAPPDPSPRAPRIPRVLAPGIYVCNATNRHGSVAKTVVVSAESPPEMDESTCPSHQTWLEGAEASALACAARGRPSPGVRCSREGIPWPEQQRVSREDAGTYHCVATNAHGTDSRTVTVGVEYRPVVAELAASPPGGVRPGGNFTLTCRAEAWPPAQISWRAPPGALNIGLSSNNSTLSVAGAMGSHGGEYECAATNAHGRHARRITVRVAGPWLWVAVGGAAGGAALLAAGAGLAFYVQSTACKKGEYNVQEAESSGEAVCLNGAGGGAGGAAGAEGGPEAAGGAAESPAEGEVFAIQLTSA
UniProt Q5T440: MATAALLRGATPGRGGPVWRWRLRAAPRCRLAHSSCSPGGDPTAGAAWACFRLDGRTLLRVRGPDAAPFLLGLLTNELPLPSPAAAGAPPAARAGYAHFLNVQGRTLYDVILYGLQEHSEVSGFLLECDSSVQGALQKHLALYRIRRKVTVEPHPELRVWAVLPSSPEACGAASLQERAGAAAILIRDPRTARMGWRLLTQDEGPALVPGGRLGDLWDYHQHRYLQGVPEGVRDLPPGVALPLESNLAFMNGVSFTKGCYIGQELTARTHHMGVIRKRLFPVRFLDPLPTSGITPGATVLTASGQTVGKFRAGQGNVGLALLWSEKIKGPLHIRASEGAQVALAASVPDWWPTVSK
UniProt P78318: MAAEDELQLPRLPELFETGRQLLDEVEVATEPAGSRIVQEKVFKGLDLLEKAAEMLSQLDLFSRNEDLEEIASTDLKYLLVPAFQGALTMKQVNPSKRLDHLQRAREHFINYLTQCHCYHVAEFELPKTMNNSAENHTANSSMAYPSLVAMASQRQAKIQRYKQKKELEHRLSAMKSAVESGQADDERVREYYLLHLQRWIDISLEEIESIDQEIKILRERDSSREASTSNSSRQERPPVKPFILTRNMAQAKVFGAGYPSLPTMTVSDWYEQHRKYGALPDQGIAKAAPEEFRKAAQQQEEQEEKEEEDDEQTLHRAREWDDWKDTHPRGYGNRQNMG
UniProt Q96LB3: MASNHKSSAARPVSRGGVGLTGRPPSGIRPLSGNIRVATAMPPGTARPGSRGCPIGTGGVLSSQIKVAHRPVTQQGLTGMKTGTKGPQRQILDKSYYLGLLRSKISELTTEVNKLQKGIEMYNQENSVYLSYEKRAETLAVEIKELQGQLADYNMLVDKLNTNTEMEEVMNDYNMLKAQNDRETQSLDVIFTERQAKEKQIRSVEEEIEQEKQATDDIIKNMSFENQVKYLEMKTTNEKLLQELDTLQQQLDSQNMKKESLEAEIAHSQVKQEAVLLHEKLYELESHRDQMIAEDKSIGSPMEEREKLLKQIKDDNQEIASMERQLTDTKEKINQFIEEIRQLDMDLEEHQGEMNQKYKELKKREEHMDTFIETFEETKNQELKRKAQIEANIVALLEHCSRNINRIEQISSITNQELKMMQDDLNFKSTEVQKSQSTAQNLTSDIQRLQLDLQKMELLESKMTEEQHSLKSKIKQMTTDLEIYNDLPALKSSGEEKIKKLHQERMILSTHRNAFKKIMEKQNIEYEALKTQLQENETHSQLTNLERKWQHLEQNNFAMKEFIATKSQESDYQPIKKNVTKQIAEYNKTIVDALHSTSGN
UniProt Q9BT40: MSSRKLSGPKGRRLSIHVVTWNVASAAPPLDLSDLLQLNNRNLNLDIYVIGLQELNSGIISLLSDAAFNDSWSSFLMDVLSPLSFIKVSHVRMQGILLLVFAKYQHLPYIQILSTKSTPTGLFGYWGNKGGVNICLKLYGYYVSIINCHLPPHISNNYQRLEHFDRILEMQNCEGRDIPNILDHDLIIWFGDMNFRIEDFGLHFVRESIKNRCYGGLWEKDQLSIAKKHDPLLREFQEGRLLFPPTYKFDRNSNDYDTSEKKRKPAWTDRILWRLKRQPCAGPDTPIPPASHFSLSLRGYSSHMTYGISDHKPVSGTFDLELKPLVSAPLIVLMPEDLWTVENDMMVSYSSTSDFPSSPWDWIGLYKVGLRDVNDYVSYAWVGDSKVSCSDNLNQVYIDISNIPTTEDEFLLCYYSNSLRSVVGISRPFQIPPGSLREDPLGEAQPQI
UniProt O60921: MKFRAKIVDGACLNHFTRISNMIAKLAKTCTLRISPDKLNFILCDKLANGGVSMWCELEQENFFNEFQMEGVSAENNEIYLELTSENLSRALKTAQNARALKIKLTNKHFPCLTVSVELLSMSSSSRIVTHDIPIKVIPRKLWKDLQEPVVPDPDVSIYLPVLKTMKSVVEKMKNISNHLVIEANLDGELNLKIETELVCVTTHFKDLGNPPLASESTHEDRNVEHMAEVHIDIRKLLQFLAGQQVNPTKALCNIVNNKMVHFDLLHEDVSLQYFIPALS

Some of the results follow.

Compound in the first assay: O=C1NC(=O)C(c2cnc3ccccn23)=C1c1cn2c3c(cc(F)cc13)CN(C(=O)N1CCCCC1)CC2
The assay is described as follows: log2 fold change, soluble protein after heating vs DMSO (PISA); higher = thermal stabilisation; K562 lysate, 10 uM; active = over 0.2 and 3.5 SD of the protein, either way, in both replicates (recomputed). In outline:
(§1)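 K562 pellets were dounce-homogenised in PBS pH 7.4 with 1 mM MgCl2, and the crude extract at 1 mg/mL protein was treated with 10 μM compound for 30 min. Aliquots were heated for 3 min across 48°C-58°C, pooled, and brought to 0.5% NP-40 at 4°C; soluble protein was the supernatant after 21,000xg for 90 min. Soluble protein was quantified by TMTpro 16plex LC-MS/MS with channel sums equalised, and reported as log2 fold change in thermal stability against DMSO controls, with values from duplicates.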
IDH3A (UniProt P50213): the log2 fold change was inactive: -0.03.

Turning to IGSF3 (UniProt O75054), the log2 fold change was inactive: 0.01.

Regarding ILKAP (UniProt Q9H0C8), the log2 fold change was inactive: -0.024.

ICAM1 (UniProt P05362): the log2 fold change was inactive: 0.018.

Turning to IDH3B (UniProt O43837), the log2 fold change was inactive: -0.018.

Regarding IGSF8 (UniProt Q969P0), the log2 fold change is inactive: 0.074.

With ILVBL (UniProt A1L0T0), the log2 fold change was inactive: 0.007.

As to IDE, A0A3B3ISG5, the log2 fold change is inactive: -0.023.

On to ILF2 (UniProt Q12905), for which the log2 fold change is inactive: 0.028.

With HTATIP2 isoform 3 (UniProt Q9BUP3), the log2 fold change is inactive: -0.02.

As for IGF2BP1 (UniProt Q9NZI8), the log2 fold change was inactive: 0.034.

For HYOU1 (UniProt J3QL06), the log2 fold change was inactive: -0.032.

For IMPA1 isoform 3 (UniProt P29218), the log2 fold change was inactive: -0.011.

IDH1 (UniProt O75874): the log2 fold change was inactive: -0.009.

With HUWE1 (UniProt Q7Z6Z7), the log2 fold change is inactive: -0.009.

HSPA8 (UniProt P11142): the log2 fold change was inactive: -0.011.

Take IL10RB (UniProt Q08334): the log2 fold change is inactive: -0.051.

Take IDH3G (UniProt P51553): the log2 fold change is inactive: 0.015.

As for ICAM5 (UniProt Q9UMF0), the log2 fold change is inactive: -0.013.

On to IBA57 (UniProt Q5T440), for which the log2 fold change is inactive: -0.041.

Turning to IGBP1 (UniProt P78318), the log2 fold change is inactive: 0.007.

In the case of IFI30 (UniProt P13284), the log2 fold change was inactive: 0.046.

For HYPK (UniProt Q9NX55), the log2 fold change was inactive: -0.031.

On to IFITM3 (UniProt Q01628), for which the log2 fold change is inactive: 0.069.

On to IFT74 (UniProt Q96LB3), for which the log2 fold change was inactive: 0.062.

As to INPP4A (UniProt Q96PE3), the log2 fold change is inactive: -0.013.

On to HYOU1 (UniProt Q9Y4L1), for which the log2 fold change is inactive: 0.008.

As for IDH2 (UniProt P48735), the log2 fold change was inactive: -0.004.

In the case of INPP5K (UniProt Q9BT40), the log2 fold change is inactive: -0.025.

Take INTS1 (UniProt Q8N201): the log2 fold change is inactive: -0.034.

With IK (UniProt Q13123), the log2 fold change is inactive: -0.038.

Turning to ILK (UniProt Q13418), the log2 fold change was inactive: 0.019.

On to HUS1 (UniProt O60921), for which the log2 fold change was inactive: -0.025.

Compound in another assay: c1cn2cc(-c3ccc4cn[nH]c4c3)nc(Nc3ccc(N4CCOCC4)cc3)c2n1 [entospletinib]
The assay is described as above. In outline:
as §1
Regarding IDH3A (UniProt P50213), the log2 fold change was inactive: -0.044.

Consider IGSF3 (UniProt O75054), for which the log2 fold change is inactive: 0.006.

In the case of ILKAP (UniProt Q9H0C8), the log2 fold change was inactive: -0.001.

With ICAM1 (UniProt P05362), the log2 fold change was inactive: 0.009.

Regarding IDH3B (UniProt O43837), the log2 fold change was inactive: 0.004.

IGSF8 (UniProt Q969P0): the log2 fold change was inactive: 0.117.

With ILVBL (UniProt A1L0T0), the log2 fold change is inactive: 0.004.

In the case of IDE, A0A3B3ISG5, the log2 fold change is inactive: 0.004.

For the target ILF2 (UniProt Q12905), the log2 fold change is inactive: -0.003.

HTATIP2 isoform 3 (UniProt Q9BUP3): the log2 fold change is inactive: 0.007.

Take IGF2BP1 (UniProt Q9NZI8): the log2 fold change was inactive: 0.029.

HYOU1 (UniProt J3QL06): the log2 fold change was inactive: 0.001.

Take IMPA1 isoform 3 (UniProt P29218): the log2 fold change was inactive: -0.005.

For IDH1 (UniProt O75874), the log2 fold change was inactive: 0.023.

On to HUWE1 (UniProt Q7Z6Z7), for which the log2 fold change was inactive: 0.003.

In the case of HSPA8 (UniProt P11142), the log2 fold change was inactive: -0.002.

Turning to IL10RB (UniProt Q08334), the log2 fold change was inactive: -0.007.

Regarding IDH3G (UniProt P51553), the log2 fold change was inactive: 0.002.

ICAM5 (UniProt Q9UMF0): the log2 fold change was inactive: -0.017.

In the case of IBA57 (UniProt Q5T440), the log2 fold change is inactive: -0.028.

For IGBP1 (UniProt P78318), the log2 fold change is inactive: 0.014.

On to IFI30 (UniProt P13284), for which the log2 fold change was inactive: -0.017.

For the target HYPK (UniProt Q9NX55), the log2 fold change is inactive: -0.086.

Regarding IFITM3 (UniProt Q01628), the log2 fold change is inactive: 0.059.

In the case of IFT74 (UniProt Q96LB3), the log2 fold change was inactive: 0.041.

Turning to INPP4A (UniProt Q96PE3), the log2 fold change is inactive: 0.006.

As for HYOU1 (UniProt Q9Y4L1), the log2 fold change was inactive: -0.006.

For IDH2 (UniProt P48735), the log2 fold change is inactive: 0.05.

Take INPP5K (UniProt Q9BT40): the log2 fold change was inactive: -0.029.

Consider INTS1 (UniProt Q8N201), for which the log2 fold change was inactive: 0.003.

As for IK (UniProt Q13123), the log2 fold change was inactive: 0.009.

As to ILK (UniProt Q13418), the log2 fold change is inactive: 0.096.

For HUS1 (UniProt O60921), the log2 fold change is inactive: 0.003.
